Experimental data taken from the supplement of paper PMC12823440, “Inhibitors supercharge kinase turnover through native proteolytic circuits” (Nature, 2025).
The list shows a part of the results. The calls rarely recur for the same compound in another form.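 Kinases, fused to nanoluciferase, were expressed in K562 cells; luminescence was measured every 4 h from 2 to 18 h as percent of control (DMSO = 100%, positive control = 0%). A time point is decreased if signal falls significantly (2 sigma). Hits were called by the authors by a rule that is not shown; the count of time points alone does not decide it.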

Chains of the proteins cited; added tags and fusions are not shown. Lines headed by an entry give the natural chain unless they say otherwise; changes in a name come on top.
UniProt P21860, whole entry: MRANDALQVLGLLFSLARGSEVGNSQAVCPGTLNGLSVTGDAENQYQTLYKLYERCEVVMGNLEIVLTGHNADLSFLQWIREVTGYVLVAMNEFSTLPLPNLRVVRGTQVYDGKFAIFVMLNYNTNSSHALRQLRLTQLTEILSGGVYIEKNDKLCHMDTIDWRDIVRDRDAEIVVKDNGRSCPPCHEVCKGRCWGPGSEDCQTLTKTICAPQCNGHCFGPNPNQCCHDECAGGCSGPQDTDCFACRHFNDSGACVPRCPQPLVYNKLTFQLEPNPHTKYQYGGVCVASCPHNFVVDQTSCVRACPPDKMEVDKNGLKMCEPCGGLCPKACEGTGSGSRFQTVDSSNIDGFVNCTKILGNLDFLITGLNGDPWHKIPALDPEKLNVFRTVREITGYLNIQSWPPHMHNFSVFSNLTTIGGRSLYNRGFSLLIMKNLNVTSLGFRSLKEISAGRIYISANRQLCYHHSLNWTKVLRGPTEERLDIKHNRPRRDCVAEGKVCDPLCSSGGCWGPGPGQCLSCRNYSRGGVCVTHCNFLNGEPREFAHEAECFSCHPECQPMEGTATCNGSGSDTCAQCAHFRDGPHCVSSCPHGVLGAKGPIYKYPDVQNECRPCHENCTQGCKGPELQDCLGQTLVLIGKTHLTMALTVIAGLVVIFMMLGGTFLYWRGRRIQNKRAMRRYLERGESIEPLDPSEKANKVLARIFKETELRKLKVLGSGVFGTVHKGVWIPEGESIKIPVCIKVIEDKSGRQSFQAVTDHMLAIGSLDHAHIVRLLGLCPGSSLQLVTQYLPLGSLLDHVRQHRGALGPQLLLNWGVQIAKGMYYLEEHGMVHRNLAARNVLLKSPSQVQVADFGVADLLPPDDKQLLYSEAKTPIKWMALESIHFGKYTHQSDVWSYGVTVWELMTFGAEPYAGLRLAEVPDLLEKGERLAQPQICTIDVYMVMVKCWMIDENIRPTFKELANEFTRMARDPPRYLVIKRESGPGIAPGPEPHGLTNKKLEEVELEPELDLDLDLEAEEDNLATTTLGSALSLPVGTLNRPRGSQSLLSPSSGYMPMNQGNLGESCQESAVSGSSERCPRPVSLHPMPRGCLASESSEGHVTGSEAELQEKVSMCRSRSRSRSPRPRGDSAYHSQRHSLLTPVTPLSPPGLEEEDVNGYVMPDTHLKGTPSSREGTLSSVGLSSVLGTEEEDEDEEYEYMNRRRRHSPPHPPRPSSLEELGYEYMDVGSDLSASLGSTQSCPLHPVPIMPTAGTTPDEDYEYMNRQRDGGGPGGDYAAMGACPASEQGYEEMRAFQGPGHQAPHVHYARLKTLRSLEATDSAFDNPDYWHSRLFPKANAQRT
UniProt O75460: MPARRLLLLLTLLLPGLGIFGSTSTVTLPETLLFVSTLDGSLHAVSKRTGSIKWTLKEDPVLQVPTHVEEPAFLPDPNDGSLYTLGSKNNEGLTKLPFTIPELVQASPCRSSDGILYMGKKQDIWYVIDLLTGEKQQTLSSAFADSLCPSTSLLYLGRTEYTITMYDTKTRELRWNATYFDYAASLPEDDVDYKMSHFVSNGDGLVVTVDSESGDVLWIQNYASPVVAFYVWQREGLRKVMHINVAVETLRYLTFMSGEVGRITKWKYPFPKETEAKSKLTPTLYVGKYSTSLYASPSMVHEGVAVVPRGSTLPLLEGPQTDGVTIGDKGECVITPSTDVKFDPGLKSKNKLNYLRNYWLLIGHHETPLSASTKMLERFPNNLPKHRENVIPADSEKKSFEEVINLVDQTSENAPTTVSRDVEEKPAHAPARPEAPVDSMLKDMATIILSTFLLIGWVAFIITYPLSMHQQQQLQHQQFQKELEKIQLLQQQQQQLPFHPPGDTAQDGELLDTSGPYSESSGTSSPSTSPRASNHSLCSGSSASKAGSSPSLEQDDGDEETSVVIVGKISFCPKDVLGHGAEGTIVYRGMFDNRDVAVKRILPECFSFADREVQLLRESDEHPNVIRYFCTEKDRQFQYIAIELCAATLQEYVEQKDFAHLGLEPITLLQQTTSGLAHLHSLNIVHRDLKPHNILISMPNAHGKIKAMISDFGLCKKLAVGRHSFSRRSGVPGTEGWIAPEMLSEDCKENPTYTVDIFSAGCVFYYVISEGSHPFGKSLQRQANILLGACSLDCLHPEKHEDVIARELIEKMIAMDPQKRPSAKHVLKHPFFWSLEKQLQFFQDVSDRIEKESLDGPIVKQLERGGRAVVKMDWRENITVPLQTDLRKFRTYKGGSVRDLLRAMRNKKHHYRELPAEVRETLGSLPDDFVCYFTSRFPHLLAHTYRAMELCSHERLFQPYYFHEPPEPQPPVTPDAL
UniProt P21802, whole entry, looked up: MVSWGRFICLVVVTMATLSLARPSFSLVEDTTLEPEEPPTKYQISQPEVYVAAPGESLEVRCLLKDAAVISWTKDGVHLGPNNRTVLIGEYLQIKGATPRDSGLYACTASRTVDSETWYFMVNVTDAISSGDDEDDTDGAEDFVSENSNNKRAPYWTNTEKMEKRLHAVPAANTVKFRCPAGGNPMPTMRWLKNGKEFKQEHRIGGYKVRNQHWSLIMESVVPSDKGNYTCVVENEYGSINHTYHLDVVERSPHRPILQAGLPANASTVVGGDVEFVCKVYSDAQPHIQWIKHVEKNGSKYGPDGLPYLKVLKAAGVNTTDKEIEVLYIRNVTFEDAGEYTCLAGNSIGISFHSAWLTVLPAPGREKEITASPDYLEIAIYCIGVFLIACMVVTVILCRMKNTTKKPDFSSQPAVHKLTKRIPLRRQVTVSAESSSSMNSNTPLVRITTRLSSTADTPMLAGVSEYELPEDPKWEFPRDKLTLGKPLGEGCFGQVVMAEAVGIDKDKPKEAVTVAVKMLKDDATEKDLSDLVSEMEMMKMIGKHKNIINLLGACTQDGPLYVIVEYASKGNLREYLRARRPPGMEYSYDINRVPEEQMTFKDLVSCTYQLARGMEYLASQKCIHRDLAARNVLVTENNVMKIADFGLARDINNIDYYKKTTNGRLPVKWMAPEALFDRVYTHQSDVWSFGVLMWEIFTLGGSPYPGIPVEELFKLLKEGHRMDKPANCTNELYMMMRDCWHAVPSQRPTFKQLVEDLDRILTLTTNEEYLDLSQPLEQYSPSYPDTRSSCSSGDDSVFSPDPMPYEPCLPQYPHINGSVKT
UniProt P22607, whole entry, looked up: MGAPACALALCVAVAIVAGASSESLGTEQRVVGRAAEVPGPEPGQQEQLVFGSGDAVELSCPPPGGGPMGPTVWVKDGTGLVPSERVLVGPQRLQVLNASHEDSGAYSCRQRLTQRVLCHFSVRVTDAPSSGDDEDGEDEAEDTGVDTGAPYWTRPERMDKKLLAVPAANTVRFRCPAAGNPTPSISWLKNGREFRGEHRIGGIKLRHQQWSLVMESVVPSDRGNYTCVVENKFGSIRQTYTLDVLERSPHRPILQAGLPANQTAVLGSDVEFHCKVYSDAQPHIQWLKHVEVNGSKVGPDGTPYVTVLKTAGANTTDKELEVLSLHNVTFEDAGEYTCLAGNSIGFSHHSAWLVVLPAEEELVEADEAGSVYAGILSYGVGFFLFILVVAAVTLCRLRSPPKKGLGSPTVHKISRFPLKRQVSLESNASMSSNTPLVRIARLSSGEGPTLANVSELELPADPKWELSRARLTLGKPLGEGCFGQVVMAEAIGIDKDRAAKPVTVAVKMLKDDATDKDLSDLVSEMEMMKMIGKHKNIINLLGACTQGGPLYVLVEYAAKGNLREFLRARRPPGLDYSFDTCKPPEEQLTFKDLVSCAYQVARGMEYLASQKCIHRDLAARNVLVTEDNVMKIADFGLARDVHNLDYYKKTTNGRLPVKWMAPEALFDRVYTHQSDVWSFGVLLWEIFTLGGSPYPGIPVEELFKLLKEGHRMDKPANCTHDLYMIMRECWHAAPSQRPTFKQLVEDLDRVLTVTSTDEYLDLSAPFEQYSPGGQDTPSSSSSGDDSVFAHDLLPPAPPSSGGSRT
UniProt P06241, whole entry, looked up: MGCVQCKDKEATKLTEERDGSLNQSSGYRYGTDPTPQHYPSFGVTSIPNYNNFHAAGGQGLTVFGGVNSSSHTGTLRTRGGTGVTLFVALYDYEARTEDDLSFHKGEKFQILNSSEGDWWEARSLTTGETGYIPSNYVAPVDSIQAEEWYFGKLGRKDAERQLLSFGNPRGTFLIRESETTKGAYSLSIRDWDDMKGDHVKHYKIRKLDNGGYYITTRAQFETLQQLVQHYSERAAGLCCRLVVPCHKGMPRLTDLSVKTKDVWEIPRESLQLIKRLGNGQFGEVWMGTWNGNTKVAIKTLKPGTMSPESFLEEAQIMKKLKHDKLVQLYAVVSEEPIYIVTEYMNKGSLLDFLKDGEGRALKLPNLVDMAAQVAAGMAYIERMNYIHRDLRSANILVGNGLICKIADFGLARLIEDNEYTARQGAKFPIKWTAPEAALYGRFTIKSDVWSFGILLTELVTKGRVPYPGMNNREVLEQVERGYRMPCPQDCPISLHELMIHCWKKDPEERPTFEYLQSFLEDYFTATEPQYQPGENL
UniProt P49840: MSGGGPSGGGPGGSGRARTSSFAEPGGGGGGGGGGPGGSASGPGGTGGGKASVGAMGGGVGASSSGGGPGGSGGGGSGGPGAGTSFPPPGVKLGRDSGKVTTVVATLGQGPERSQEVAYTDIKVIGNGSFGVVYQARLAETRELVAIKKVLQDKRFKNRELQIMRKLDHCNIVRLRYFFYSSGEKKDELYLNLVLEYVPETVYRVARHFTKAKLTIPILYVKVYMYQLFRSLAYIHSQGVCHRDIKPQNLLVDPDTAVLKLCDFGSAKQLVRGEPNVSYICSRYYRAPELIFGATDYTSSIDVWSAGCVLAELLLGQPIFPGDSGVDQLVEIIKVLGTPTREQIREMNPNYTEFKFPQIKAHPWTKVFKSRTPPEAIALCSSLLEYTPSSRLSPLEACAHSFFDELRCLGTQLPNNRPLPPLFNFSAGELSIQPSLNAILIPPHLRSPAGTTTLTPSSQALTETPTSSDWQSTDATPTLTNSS
UniProt P14616: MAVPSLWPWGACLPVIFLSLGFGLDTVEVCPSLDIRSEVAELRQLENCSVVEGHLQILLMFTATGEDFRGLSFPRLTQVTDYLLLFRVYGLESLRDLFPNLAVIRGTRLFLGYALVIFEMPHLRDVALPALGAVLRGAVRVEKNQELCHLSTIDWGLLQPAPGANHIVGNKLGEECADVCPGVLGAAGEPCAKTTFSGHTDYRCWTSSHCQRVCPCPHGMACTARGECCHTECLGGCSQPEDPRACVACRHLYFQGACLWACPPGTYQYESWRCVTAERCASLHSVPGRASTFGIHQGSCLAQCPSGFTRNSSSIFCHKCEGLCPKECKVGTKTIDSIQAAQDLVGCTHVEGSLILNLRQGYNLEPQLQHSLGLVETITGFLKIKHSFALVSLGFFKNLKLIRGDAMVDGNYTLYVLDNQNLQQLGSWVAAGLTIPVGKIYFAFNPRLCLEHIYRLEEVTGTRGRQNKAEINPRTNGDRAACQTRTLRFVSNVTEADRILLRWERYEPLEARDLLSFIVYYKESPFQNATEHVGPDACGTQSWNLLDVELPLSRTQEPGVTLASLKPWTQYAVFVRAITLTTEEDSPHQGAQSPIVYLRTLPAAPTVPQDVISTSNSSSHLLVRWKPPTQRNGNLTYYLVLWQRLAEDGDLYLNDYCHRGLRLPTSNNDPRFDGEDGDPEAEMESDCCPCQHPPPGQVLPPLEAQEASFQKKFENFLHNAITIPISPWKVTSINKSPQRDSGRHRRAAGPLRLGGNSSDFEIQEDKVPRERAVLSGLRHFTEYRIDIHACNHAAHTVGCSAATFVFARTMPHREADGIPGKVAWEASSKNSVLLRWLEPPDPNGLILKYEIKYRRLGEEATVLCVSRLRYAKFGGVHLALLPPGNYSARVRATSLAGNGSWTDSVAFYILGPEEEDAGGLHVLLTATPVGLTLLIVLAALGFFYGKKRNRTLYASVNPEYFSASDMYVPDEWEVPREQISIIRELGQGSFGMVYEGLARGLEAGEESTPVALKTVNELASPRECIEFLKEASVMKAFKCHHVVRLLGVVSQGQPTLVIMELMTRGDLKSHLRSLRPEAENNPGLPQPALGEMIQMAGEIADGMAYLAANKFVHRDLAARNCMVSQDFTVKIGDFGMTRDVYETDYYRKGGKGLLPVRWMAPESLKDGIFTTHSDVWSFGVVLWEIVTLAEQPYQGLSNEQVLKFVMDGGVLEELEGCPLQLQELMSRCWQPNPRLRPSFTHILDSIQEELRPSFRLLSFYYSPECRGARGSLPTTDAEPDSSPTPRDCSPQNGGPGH

How the values were obtained:
Experiment in all cases: kinase-Nluc reporter destabilization hit call (1 = scored as downregulated) (binary); higher = compound decreases kinase abundance
Conditions in all cases: K562; 2-18 h
EGFR = EGFR (UniProt P00533)
EGFR_G719S = EGFR_G719S (UniProt P00533)
EGFR_G719S_T790M = EGFR_G719S_T790M (UniProt P00533)
EGFR_L718V = EGFR_L718V (UniProt P00533)
EGFR_L858R = EGFR_L858R (UniProt P00533)
EGFR_L861Q = EGFR_L861Q (UniProt P00533)
EGFR_T790M = EGFR_T790M (UniProt P00533)
EPHA2 = EPHA2 (UniProt P29317)
ERBB3 = ERBB3 (UniProt P21860)
[1] = molecular target: ERBB4_R711C (clone: ERBB4_mut) (UniProt Q15303)
ERN1 = ERN1 (UniProt O75460)
FGFR1 = FGFR1 (UniProt P11362)
FGFR2 = FGFR2 (UniProt P21802)
FGFR3 = FGFR3 (UniProt P22607)
FGR = FGR (UniProt P09769)
FLT3 = FLT3 (UniProt P36888)
FYN = FYN (UniProt P06241)
GSK3A = GSK3A (UniProt P49840)
HER2 = HER2 (UniProt P04626)
INSRR = INSRR (UniProt P14616)

Measured: kinase-Nluc reporter destabilization hit call

Cn1cc(-c2c[nH]c3ncnc(N4CCOCC4)c23)cc1C#N (10 µM)
inactive: EGFR 0 | EGFR_G719S 0 | EGFR_G719S_T790M 0 | EGFR_L718V 0 | EGFR_L858R 0 | EGFR_L861Q 0 | EGFR_T790M 0 | EPHA2 = 0 | ERBB3 = 0 | [1] 0 | ERN1 = 0 | FGFR1 = 0 | FGFR2 = 0 | FGFR3 = 0 | FGR 0 | FLT3 = 0 | FYN 0 | GSK3A 0 | HER2 = 0 | INSRR 0

CCN(CC)c1cc2oc(=O)c(-c3nc4ccccc4o3)cc2cc1C (2.5 µM)
inactive: EGFR 0 | EGFR_G719S 0 | EGFR_G719S_T790M 0 | EGFR_L718V 0 | EGFR_L858R 0 | EGFR_L861Q 0 | EGFR_T790M 0 | EPHA2 = 0 | ERBB3 = 0 | [1] 0 | ERN1 = 0 | FGFR1 = 0 | FGFR2 = 0 | FGFR3 = 0 | FGR 0 | FLT3 = 0 | FYN 0 | GSK3A 0 | HER2 = 0 | INSRR 0

Nc1n[nH]c2nc(-c3ccc(NS(=O)(=O)c4cc(Cl)ccc4F)cc3)cnc12 (10 µM)
active: EGFR_T790M 1
inactive: EGFR 0 | EGFR_G719S 0 | EGFR_G719S_T790M 0 | EGFR_L718V 0 | EGFR_L858R 0 | EGFR_L861Q 0 | EPHA2 = 0 | ERBB3 = 0 | [1] 0 | ERN1 = 0 | FGFR1 = 0 | FGFR2 = 0 | FGFR3 = 0 | FGR 0 | FLT3 = 0 | FYN 0 | GSK3A 0 | HER2 = 0 | INSRR 0

O=C(O)c1cc(=O)c2c(OCC(O)COc3cccc4oc(C(=O)O)cc(=O)c34)cccc2o1 [Cromolyn (sodium)] (10 µM)
inactive: EGFR 0 | EGFR_G719S 0 | EGFR_G719S_T790M 0 | EGFR_L718V 0 | EGFR_L858R 0 | EGFR_L861Q 0 | EGFR_T790M 0 | EPHA2 = 0 | ERBB3 = 0 | [1] 0 | ERN1 = 0 | FGFR1 = 0 | FGFR2 = 0 | FGFR3 = 0 | FGR 0 | FLT3 = 0 | FYN 0 | GSK3A 0 | HER2 = 0 | INSRR 0

Cn1cnc([N+](=O)[O-])c1C[N+](C)(C)C/C=C/C(=O)Nc1cc2c(Nc3ccc(Cl)c(Br)c3)ncnc2cn1 [Tarloxotinib (bromide)] (10 µM)
inactive: EGFR 0 | EGFR_G719S 0 | EGFR_G719S_T790M 0 | EGFR_L718V 0 | EGFR_L858R 0 | EGFR_L861Q 0 | EGFR_T790M 0 | EPHA2 = 0 | ERBB3 = 0 | [1] 0 | ERN1 = 0 | FGFR1 = 0 | FGFR2 = 0 | FGFR3 = 0 | FGR 0 | FLT3 = 0 | FYN 0 | GSK3A 0 | HER2 = 0 | INSRR 0

C=CCc1ccc(O)c(-c2ccc(O)c(CC=C)c2)c1 [Honokiol] (10 µM)
inactive: EGFR 0 | EGFR_G719S 0 | EGFR_G719S_T790M 0 | EGFR_L718V 0 | EGFR_L858R 0 | EGFR_L861Q 0 | EGFR_T790M 0 | EPHA2 = 0 | ERBB3 = 0 | [1] 0 | ERN1 = 0 | FGFR1 = 0 | FGFR2 = 0 | FGFR3 = 0 | FGR 0 | FLT3 = 0 | FYN 0 | GSK3A 0 | HER2 = 0 | INSRR 0

O=C(CNc1cccc(Cl)c1)NC1CCCN(c2ncnc3[nH]ccc23)C1 (stereo not given) (10 µM)
inactive: EGFR 0 | EGFR_G719S 0 | EGFR_G719S_T790M 0 | EGFR_L718V 0 | EGFR_L858R 0 | EGFR_L861Q 0 | EGFR_T790M 0 | EPHA2 = 0 | ERBB3 = 0 | [1] 0 | ERN1 = 0 | FGFR1 = 0 | FGFR2 = 0 | FGFR3 = 0 | FGR 0 | FLT3 = 0 | FYN 0 | GSK3A 0 | HER2 = 0 | INSRR 0

Cc1cc(Nc2nc(CC3(C(=O)O)CCN(C(=O)c4cccc(Cl)c4Cl)CC3)ccc2F)n[nH]1 (10 µM)
inactive: EGFR 0 | EGFR_G719S 0 | EGFR_G719S_T790M 0 | EGFR_L718V 0 | EGFR_L858R 0 | EGFR_L861Q 0 | EGFR_T790M 0 | EPHA2 = 0 | ERBB3 = 0 | [1] 0 | ERN1 = 0 | FGFR1 = 0 | FGFR2 = 0 | FGFR3 = 0 | FGR 0 | FLT3 = 0 | FYN 0 | GSK3A 0 | HER2 = 0 | INSRR 0

Cc1ccc(NC(=O)c2ccnc(C(F)(F)F)c2)cc1-c1cc(OCCO)nc(N2CCOCC2)c1 (10 µM)
inactive: EGFR 0 | EGFR_G719S 0 | EGFR_G719S_T790M 0 | EGFR_L718V 0 | EGFR_L858R 0 | EGFR_L861Q 0 | EGFR_T790M 0 | EPHA2 = 0 | ERBB3 = 0 | [1] 0 | ERN1 = 0 | FGFR1 = 0 | FGFR2 = 0 | FGFR3 = 0 | FGR 0 | FLT3 = 0 | FYN 0 | GSK3A 0 | HER2 = 0 | INSRR 0

Cc1cc2sc(NC(=O)Cc3ccccc3)nc2cc1Cl (10 µM)
inactive: EGFR 0 | EGFR_G719S 0 | EGFR_G719S_T790M 0 | EGFR_L718V 0 | EGFR_L858R 0 | EGFR_L861Q 0 | EGFR_T790M 0 | EPHA2 = 0 | ERBB3 = 0 | [1] 0 | ERN1 = 0 | FGFR1 = 0 | FGFR2 = 0 | FGFR3 = 0 | FGR 0 | FLT3 = 0 | FYN 0 | GSK3A 0 | HER2 = 0 | INSRR 0

COc1ccc(-c2coc3cc(O)ccc3c2=O)cc1 [Formononetin] (10 µM)
inactive: EGFR 0 | EGFR_G719S 0 | EGFR_G719S_T790M 0 | EGFR_L718V 0 | EGFR_L858R 0 | EGFR_L861Q 0 | EGFR_T790M 0 | EPHA2 = 0 | ERBB3 = 0 | [1] 0 | ERN1 = 0 | FGFR1 = 0 | FGFR2 = 0 | FGFR3 = 0 | FGR 0 | FLT3 = 0 | FYN 0 | GSK3A 0 | HER2 = 0 | INSRR 0

Cc1c(-c2ccc(C(N)=O)c3[nH]c4cc(C(C)(C)O)ccc4c23)cccc1-n1cnc2ccccc2c1=O (2.5 µM)
inactive: EGFR 0 | EGFR_G719S 0 | EGFR_G719S_T790M 0 | EGFR_L718V 0 | EGFR_L858R 0 | EGFR_L861Q 0 | EGFR_T790M 0 | EPHA2 = 0 | ERBB3 = 0 | [1] 0 | ERN1 = 0 | FGFR1 = 0 | FGFR2 = 0 | FGFR3 = 0 | FGR 0 | FLT3 = 0 | FYN 0 | GSK3A 0 | HER2 = 0 | INSRR 0

COc1cc(-c2cn[nH]c2)ccc1C(=O)Nc1ccc2c(c1)CCNCC2 (10 µM)
inactive: EGFR 0 | EGFR_G719S 0 | EGFR_G719S_T790M 0 | EGFR_L718V 0 | EGFR_L858R 0 | EGFR_L861Q 0 | EGFR_T790M 0 | EPHA2 = 0 | ERBB3 = 0 | [1] 0 | ERN1 = 0 | FGFR1 = 0 | FGFR2 = 0 | FGFR3 = 0 | FGR 0 | FLT3 = 0 | FYN 0 | GSK3A 0 | HER2 = 0 | INSRR 0

Cc1cnc(NC2CCOCC2)nc1-n1cnc(C(=O)N[C@H](CN)c2cc(F)cc(Cl)c2)c1 (10 µM)
inactive: EGFR 0 | EGFR_G719S 0 | EGFR_G719S_T790M 0 | EGFR_L718V 0 | EGFR_L858R 0 | EGFR_L861Q 0 | EGFR_T790M 0 | EPHA2 = 0 | ERBB3 = 0 | [1] 0 | ERN1 = 0 | FGFR1 = 0 | FGFR2 = 0 | FGFR3 = 0 | FGR 0 | FLT3 = 0 | FYN 0 | GSK3A 0 | HER2 = 0 | INSRR 0

CCN(CC)CCC(=O)N1N=C(c2c(-c3ccccc3)c3cc(Br)ccc3[nH]c2=O)CC1c1ccc(Br)cc1 (stereo not given) (2.5 µM)
inactive: EGFR 0 | EGFR_G719S 0 | EGFR_G719S_T790M 0 | EGFR_L718V 0 | EGFR_L858R 0 | EGFR_L861Q 0 | EGFR_T790M 0 | EPHA2 = 0 | ERBB3 = 0 | [1] 0 | ERN1 = 0 | FGFR1 = 0 | FGFR2 = 0 | FGFR3 = 0 | FGR 0 | FLT3 = 0 | FYN 0 | GSK3A 0 | HER2 = 0 | INSRR 0

Cc1cc(-c2ccnc(Nc3cnn(C)c3)n2)ccc1CNC(=O)N1CC(OC(C)C)C1 (10 µM)
inactive: EGFR 0 | EGFR_G719S 0 | EGFR_G719S_T790M 0 | EGFR_L718V 0 | EGFR_L858R 0 | EGFR_L861Q 0 | EGFR_T790M 0 | EPHA2 = 0 | ERBB3 = 0 | [1] 0 | ERN1 = 0 | FGFR1 = 0 | FGFR2 = 0 | FGFR3 = 0 | FGR 0 | FLT3 = 0 | FYN 0 | GSK3A 0 | HER2 = 0 | INSRR 0

Oc1ccc(/C=C/c2cc(O)cc(O)c2)cc1 [Resveratrol] (10 µM)
inactive: EGFR 0 | EGFR_G719S 0 | EGFR_G719S_T790M 0 | EGFR_L718V 0 | EGFR_L858R 0 | EGFR_L861Q 0 | EGFR_T790M 0 | EPHA2 = 0 | ERBB3 = 0 | [1] 0 | ERN1 = 0 | FGFR1 = 0 | FGFR2 = 0 | FGFR3 = 0 | FGR 0 | FLT3 = 0 | FYN 0 | GSK3A 0 | HER2 = 0 | INSRR 0

Ordered by heavy-atom count (ascending): some entries from above.
Oc1ccc(/C=C/c2cc(O)cc(O)c2)cc1 [Resveratrol] (10 µM)
inactive: EGFR 0 | EGFR_G719S 0 | EGFR_G719S_T790M 0 | EGFR_L718V 0 | EGFR_L858R 0 | EGFR_L861Q 0 | EGFR_T790M 0 | EPHA2 = 0 | ERBB3 = 0 | [1] 0 | ERN1 = 0 | FGFR1 = 0 | FGFR2 = 0 | FGFR3 = 0 | FGR 0 | FLT3 = 0 | FYN 0 | GSK3A 0 | HER2 = 0 | INSRR 0

COc1cc(-c2cn[nH]c2)ccc1C(=O)Nc1ccc2c(c1)CCNCC2 (10 µM)
inactive: EGFR 0 | EGFR_G719S 0 | EGFR_G719S_T790M 0 | EGFR_L718V 0 | EGFR_L858R 0 | EGFR_L861Q 0 | EGFR_T790M 0 | EPHA2 = 0 | ERBB3 = 0 | [1] 0 | ERN1 = 0 | FGFR1 = 0 | FGFR2 = 0 | FGFR3 = 0 | FGR 0 | FLT3 = 0 | FYN 0 | GSK3A 0 | HER2 = 0 | INSRR 0

Nc1n[nH]c2nc(-c3ccc(NS(=O)(=O)c4cc(Cl)ccc4F)cc3)cnc12 (10 µM)
active: EGFR_T790M 1
inactive: EGFR 0 | EGFR_G719S 0 | EGFR_G719S_T790M 0 | EGFR_L718V 0 | EGFR_L858R 0 | EGFR_L861Q 0 | EPHA2 = 0 | ERBB3 = 0 | [1] 0 | ERN1 = 0 | FGFR1 = 0 | FGFR2 = 0 | FGFR3 = 0 | FGR 0 | FLT3 = 0 | FYN 0 | GSK3A 0 | HER2 = 0 | INSRR 0

(listing goes on)

CN1CCC(c2ccccc2CC(C)(C)Nc2nc(N3CCOCC3)nc(-n3c(C(F)F)nc4ccccc43)n2)CC1 [Zandelisib] (10 µM)
inactive: EGFR 0 | EGFR_G719S 0 | EGFR_G719S_T790M 0 | EGFR_L718V 0 | EGFR_L858R 0 | EGFR_L861Q 0 | EGFR_T790M 0 | EPHA2 = 0 | ERBB3 = 0 | [1] 0 | ERN1 = 0 | FGFR1 = 0 | FGFR2 = 0 | FGFR3 = 0 | FGR 0 | FLT3 = 0 | FYN 0 | GSK3A 0 | HER2 = 0 | INSRR 0

O[C@@H]1CO[C@H]2[C@@H]1OC[C@H]2Oc1nc2nc(-c3ccc(-c4ccccc4)cc3)c(Cl)cc2[nH]1 (10 µM)
inactive: EGFR 0 | EGFR_G719S 0 | EGFR_G719S_T790M 0 | EGFR_L718V 0 | EGFR_L858R 0 | EGFR_L861Q 0 | EGFR_T790M 0 | EPHA2 = 0 | ERBB3 = 0 | [1] 0 | ERN1 = 0 | FGFR1 = 0 | FGFR2 = 0 | FGFR3 = 0 | FGR 0 | FLT3 = 0 | FYN 0 | GSK3A 0 | HER2 = 0 | INSRR 0
